# Experiments:
# SK-N-BE(2) cells = experiment: Live cell microscopy apoptosis assay (caspase 3/7 dye); settings: 15 hours; Atorvastatin 10 μM
# Procedure: (§1) To accurately measure cellular apoptosis over time, the present inventors performed live cell microscopy experiments with cells loaded with both DNA and caspase 3/7 dyes, which enables continuous and precise quantification of apoptosis at the single cell level.
# (§2) Cell viability for SK-N-BE(2) cells was conducted using a fluorometric cell viability assay using Resazurin (PromoKine) according to the manufacturer's instructions. […] Dyes were added at the time of seeding, 18-24 hours prior to performing experiments.
# (§3) Experiments were performed using an ImageXpress MicroXL microscope and a 10× objective, where images were acquired for each well at the indicated time-points using DAPI and FITC filter sets. […] Percent apoptotic cells was calculated from the sum of apoptotic cell pixels divided by the sum of all cell pixels for each field of view.
# HaCaT cells = experiment: as above; settings: Atorvastatin 10 μM
# Procedure: as §1, §2, §3
structure (smiles),measurement,setting,value
CC(C)c1c(C(=O)Nc2ccccc2)c(-c2ccccc2)c(-c2ccc(F)cc2)n1CC[C@@H](O)C[C@@H](O)CC(=O)O [Atorvastatin],toxic effect (apoptosis) of high CBD doses with simultaneous atorvastatin vs CBD alone,SK-N-BE(2) cells,dramatically reduced
same,"protection from CBD induced apoptosis by inhibition of cholesterol biosynthesis, relative to SK-N-BE(2)",HaCaT cells,far more pronounced

# — patent publication US20210244686A1, “Novel Systems And Methods For The Therapeutic Use of Cannabinoids or Cannabinoid Analogs to Increase The Lipid Order of Cholesterol Containing Cell Membranes” (The Regents of the University of Colorado a body corporate, priority 2018, published 2021)
